# Reference: PubChem BioAssay AID485298 (National Center for Advancing Translational Sciences (NCATS), 2010)
# The campaign covered roughly 320,000 compounds. About 740 (0.23%) were called active. The inconclusive results got no clear call from the source; some entries with a clear call stand among them for comparison. Calls come from the whole dose curve; as a rule, active = well fitted activation curve with a large enough effect; inconclusive = small, poorly fitted or top-dose-only effect; inactive = no such curve, though single readings can be large or run the other way. Where the call is inconclusive, the potency comes from a doubtful curve fit. More than one record can exist for a structure, and the calls need not agree.
# Test: qHTS Assay for Small Molecule Inhibitors of Mitochondrial Division or Activators of Mitochondrial Fusion; note: nearly all actives have a fitted effect of over 45% in size
# Conditions: S. cerevisiae fusion-defective mutant growth rescue, CellTiterGlo 48 h; series mostly up to 46.1 µM
# Procedure, shortened: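 Read-out: ATP-based luminescence (CellTiterGlo, 10 min ambient) reporting growth of fusion-defective ts yeast after 48 hours at 37C on glycerol/ethanol YPEG medium in the presence of compound.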
# Potency is the fitted concentration of half-maximal effect.
row,Compound,Potency
1,CC(C)CC(=O)Nc1ccc(C(=O)Cn2c(=O)oc3ccccc32)cc1,"inconclusive: 31.6 µM [activator, single point]"
2,COc1ccc(/C=C2/C(=O)NC(=O)N(c3ccccc3)C2=O)cc1CN1C(=O)c2ccccc2C1=O,inactive
3,COC(=O)C1=C(c2cccc(OCc3ccccc3)c2)C[C@@H]2CC[C@H]1N2C(=O)NCc1cccc(OC)c1,"inconclusive: 12.6 µM [activator, single point]"
4,Cc1ccc(OP(=O)(NCc2ccccc2)Oc2ccc(C)cc2)cc1,"inconclusive: 35.5 µM [activator, single point]"
5,COC(=O)C1=C(c2ccc(OCc3ccccc3)cc2)C[C@@H]2CC[C@H]1N2C(=O)NCc1ccccc1,"inconclusive: 31.6 µM [activator, single point]"
6,COc1ccc(CNc2oc(-c3cccc4ccccc34)nc2P(=O)(OC)OC)cc1,"inconclusive: 35.5 µM [activator, single point]"
7,COc1ccc(CN2C(=O)NC(=O)/C(=C\c3ccc(OC)c(OC)c3OC)C2=O)cc1,"inconclusive: 31.6 µM [activator, single point]"
8,CC1(C)C(C(=O)N2CCN(c3ccc(Cl)cc3)CC2)C1(C)C,"inconclusive: 12.6 µM [activator, partial curve]"
9,CCC(=NCc1ccc2c(c1)OCO2)c1c(O)n(C2CCCCC2)c(=O)[nH]c1=O,"inconclusive: 12.6 µM [activator, single point]"
10,Oc1ccc2c3c1O[C@H]1c4[nH]c5c(c4C[C@@]4(O)[C@@H](C2)N(CC2CC2)CC[C@]314)C[C@@]1(O)[C@H]2Cc3ccc(O)c4c3[C@@]1(CCN2CC1CC1)[C@H]5O4,"inconclusive: 18.4 µM [activator, single point]"
11,Cc1ccc(-n2c(/C=C/c3ccc4c(c3)OCO4)nc3ccccc3c2=O)cc1,"inconclusive: 20 µM [activator, single point]"
12,COc1cc([C@@H]2c3cc4c(cc3[C@@H](OC)[C@H]3COC(=O)[C@H]23)OCO4)cc(OC)c1O,"inconclusive: 28.2 µM [activator, partial curve, poor fit]"
13,COC(=O)C1=C(c2ccc(-c3ccccc3)c(F)c2)C[C@@H]2CC[C@H]1N2C(=O)NCCc1ccccc1,"inconclusive: 10 µM [activator, partial curve]"
14,C[C@H](O)[C@H]1CC[C@H]2[C@@H]3CCC4=CC(=O)CC[C@]4(C)[C@H]3CC[C@]12C,"inconclusive: 35.5 µM [activator, single point]"
15,Cc1ccc(OCC(=O)N2CCN(C3CCC(c4ccccc4)CC3)CC2)cc1 (stereo not drawn),"inconclusive: 28.2 µM [activator, single point]"
16,CC1(C)CN=C(Nc2nc3ccccc3s2)S1,inactive
17,Cc1ccc(S(=O)(=O)CC(=O)c2cc(C)c(OC(=O)N(C)C)c(C)c2)cc1,"inconclusive: 35.5 µM [activator, single point]"
18,CC(CCc1ccccc1)NC(C)C(O)c1ccc(O)cc1 (stereo not drawn),"inconclusive: 8.2 µM [activator, partial curve]"
19,Cc1c(C(=O)c2cccc3ccccc23)c2cccc3c2n1[C@H](CN1CCOCC1)CO3,active: 9.2 µM
20,CC(=O)N1CCN(c2ccc(OC[C@H]3CO[C@](Cn4ccnc4)(c4ccc(Cl)cc4Cl)O3)cc2)CC1,active: 0.411 µM
21,Cc1cc([N+](=O)[O-])c2ccccc2[n+]1[O-],inactive

row,Compound,Potency
1,Nc1c(C(=O)NCC2CCCO2)c2nc3ccccc3nc2n1Cc1ccco1 (stereo not drawn),"inconclusive: 31.6 µM [activator, single point]"
2,Cc1ccc(NP(=O)(c2ccccc2)c2nc3ccccc3s2)cc1 (stereo not drawn),"inconclusive: 35.5 µM [activator, single point]"
3,N#C/C(=C/c1ccc(O)c(O)c1)C(N)=S,active: 20.6 µM
4,CC[C@@]1(O)C(=O)OCc2c1cc1n(c2=O)Cc2cc3ccccc3nc2-1,active: 13 µM
5,Clc1ccc(CSC(Cn2ccnc2)c2ccc(Cl)cc2Cl)cc1 (stereo not drawn),"inconclusive: 3.55 µM [activator, partial curve]"
6,COC(=O)C1=C(c2ccc(OC(F)(F)F)cc2)C[C@@H]2CC[C@H]1N2C(=O)NCCc1ccccc1,"inconclusive: 12.6 µM [activator, single point]"
7,CCN(CC)C(=O)c1ccc(NC(=O)c2cccc(S(=O)(=O)N3CCN(Cc4ccccc4)CC3)c2)cc1,inactive
8,C[C@]12Cc3cn4c(nc3C=C1CCC1C2CC[C@@]2(C)[C@H]1CC[C@@]2(O)C#N)nc1ccccc14 (stereo partly drawn),"inconclusive: 2.59 µM [activator, single point]"
9,C#C[C@]1(O)CC[C@H]2[C@@H]3CCC4=Cc5nc6nc7ccccc7n6cc5C[C@]4(C)[C@H]3CC[C@@]21C,"inconclusive: 10 µM [activator, partial curve]"
10,CC(C)(C)c1ccc(C(=O)C2CCCN(C3CCC3)C2)cc1 (stereo not drawn),"inconclusive: 1.41 µM [activator, full curve]"
11,CC(C)(C)n1c(O)c(C=Nc2ccc3c(c2)CCC3)c(=O)[nH]c1=O,"inconclusive: 22.4 µM [activator, single point]"
12,C=C(C)[C@H]1Cc2c(ccc3c2O[C@@H]2COc4cc(OC)c(OC)cc4[C@@H]2C3=O)O1,active: 18.4 µM
13,Cc1ccsc1C(=O)C1CCCN(Cc2cnc(N(C)C)s2)C1 (stereo not drawn),inactive
14,COC(=O)C[C@]1(C(=O)OC)CN(C#N)N(c2ccc(Cl)cc2)C12c1ccccc1-c1ccccc12,"inconclusive: 8.91 µM [activator, partial curve]"
15,CN(C)C(=O)Oc1ccc(Br)cc1C(=O)Nc1ccc(F)c(Cl)c1,"inconclusive: 2.82 µM [activator, full curve, poor fit]"
16,CCCCCCCn1c(=O)c(C(=O)Nc2cnccn2)c(O)c2ccccc21,inactive
17,Cc1ccc(N2C(=O)NC(=O)C(CCc3ccccn3)(Cc3cccc(Cl)c3Cl)C2=O)cc1 (stereo not drawn),"inconclusive: 12.6 µM [activator, partial curve]"
18,CC12CC[C@H]3[C@@H](CCC4(O)C[C@H](O)CCC34/C=N/NC(=O)c3ccccc3Cl)C1(O)CCC2C1=CC(=O)OC1 (stereo partly drawn),inactive
19,CC1CCC[C@H](O)CCCCCc2cc(O)cc(O)c2C(=O)O1 (stereo partly drawn),"inconclusive: 22.4 µM [activator, partial curve, poor fit]"
20,O=c1c2ccccc2nc(/C=C/c2cccnc2)n1Cc1ccccc1,"inconclusive: 17.8 µM [activator, partial curve]"
21,O=C(Cn1c(=O)oc2ccccc21)N1CCCC1,"inconclusive: 6.31 µM [activator, single point]"

row,Compound,Potency
1,O=C1/C(=C\c2cc3c(cc2Br)OCO3)N2CCC1CC2,"inconclusive: 11.2 µM [activator, partial curve]"
2,Cc1ccc(-c2cc(-c3ccc(C)cc3)[n+](-c3ccccc3)c(-c3ccc(C)cc3)c2)cc1,inactive
3,CCOc1cc(/C=C2/C(=O)NC(=O)N(c3ccc(CC)cc3)C2=O)ccc1OC(=O)c1cccs1,inactive
4,C[C@]12N[C@H](Cc3ccccc31)c1ccccc12,"inconclusive: 4.61 µM [activator, partial curve, poor fit]"
5,CC(C)N1C(=O)/C(=C/C=C/c2ccco2)C(=O)N(Cc2ccco2)C1=O,inactive
6,CN(N=O)c1cc(O)ccc1O,active: 23.1 µM
7,O=C(c1ccc(Cl)cc1)C1CCCN(Cc2ccc3c(c2)OCCO3)C1 (stereo not drawn),"inconclusive: 20 µM [activator, partial curve]"
8,CCOC(=O)C(NC(=O)C(Cc1ccc(N(CCCl)CCCl)cc1)NC(C)=O)C(C)C (stereo not drawn),active: 3.98 µM
9,O=c1c2ccccc2nc(SCC2CCCCO2)n1-c1ccccc1 (stereo not drawn),"inconclusive: 12.6 µM [activator, partial curve]"
10,CCCCC(=O)N/N=C/c1c(O)n(C2CC2)c(=S)[nH]c1=O,inactive
11,COC(=O)C1=C(c2ccccc2OCc2ccccc2)C[C@@H]2CC[C@H]1N2C(=O)NCc1ccc([N+](=O)[O-])cc1,"inconclusive: 15.8 µM [activator, single point]"
12,C#CCOc1ccc2c(c1)c(C(C)=O)c(C)n2Cc1ccccc1,inactive
13,CC1=CC(=C2C(=O)NC(=S)NC2=O)C=C(C(F)(F)F)N1Cc1ccccc1,"inconclusive: 6.31 µM [activator, full curve]"
14,CN1CC[C@@]2(C)c3cc(O)ccc3N(C)C12 (stereo partly drawn),"inconclusive: 16.4 µM [activator, partial curve]"
15,CC(C)OC(=O)C1C2c3ccccc3C(c3ccccc32)C1C(=O)O (stereo not drawn),inactive
16,C=CCn1c(O)c(C=Nc2ccc(N(CC)CC)cc2)c(=O)[nH]c1=O,inactive
17,CNc1ccc2oc(C[C@H]3O[C@@]4(CC[C@H]3C)O[C@H]([C@H](C)C(=O)c3ccc[nH]3)[C@H](C)C[C@H]4C)nc2c1C(=O)O,"inconclusive: 18.4 µM [activator, single point]"
18,COc1ccc(-n2c(/C=C/c3ccc4c(c3)OCO4)nc3ccccc3c2=O)cc1,"inconclusive: 17.8 µM [activator, partial curve]"
19,CCCN1CCc2cccc3c2[C@H]1Cc1ccc(O)c(O)c1-3,"inconclusive: 5.17 µM [activator, full curve, poor fit]"
20,Cc1cccc(-n2c(O)c(C=NC34CN5CN(CN(C5)C3)C4)c(=O)[nH]c2=O)c1,"inconclusive: 10 µM [activator, partial curve]"
21,Fc1ccc(C2=CCN(C(c3cccs3)c3nnnn3CCc3ccccc3)CC2)cc1 (stereo not drawn),"inconclusive: 10 µM [activator, partial curve]"

# 3 neighbouring compounds from above:
row,Compound,Potency
16,C=CCn1c(O)c(C=Nc2ccc(N(CC)CC)cc2)c(=O)[nH]c1=O,inactive
17,CNc1ccc2oc(C[C@H]3O[C@@]4(CC[C@H]3C)O[C@H]([C@H](C)C(=O)c3ccc[nH]3)[C@H](C)C[C@H]4C)nc2c1C(=O)O,"inconclusive: 18.4 µM [activator, single point]"
18,COc1ccc(-n2c(/C=C/c3ccc4c(c3)OCO4)nc3ccccc3c2=O)cc1,"inconclusive: 17.8 µM [activator, partial curve]"
